# Measured values as given in patent EP0840781B1, “METHODS AND DEVICES FOR THE REMOVAL OF PSORALENS FROM BLOOD PRODUCTS” (Cerus Corporation, priority 1995, dated 1996).
# At least one structure is not confirmed: it was looked up by name or label, or the drawing left a doubt.
# System: HIV-1
# Details: 64 µM; 1 Minute Irradiation; HIV Starting Titer Approximately 5 Logs (Table 10)
smiles,measurement,value
"Cc1oc2c(C)c3oc(=O)cc(C)c3cc2c1CN [AMT, 4'-Aminomethyl-4,5',8-trimethylpsoralen, reference compound]",HIV Log Kill,3.9 - >3.6
